# Reference: PubChem BioAssay AID493014 (National Center for Advancing Translational Sciences (NCATS), 2011)
# Some of the results follow. Further columns of the screen follow, without active or inactive calls. The list favours compounds with an active or inconclusive main result. Words in brackets tell the shape of the fitted curve; partial curves, single points and poor fits give uncertain potencies.
# Assay: qHTS Assay to Find Inhibitors of Chronic Active B-Cell Receptor Signaling
# Settings: ABC-DLBCL IkBa-CBG/CBR reporter, luminescence ratio (green luciferase fused to IkBa over red control in TMD8 lymphoma cells), 4 h
# In short: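 Compounds up to 46 uM were incubated four hours with TMD8 cells whose green CBG68 luciferase is fused to IkappaBalpha; red CBR luminescence normalised the signal, and concentration-effect curves were fitted to fusion, red and ratio data.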
# [1] = measured here: CBR red luminescence, cell number
# [2] = measured here: IkBa-CBG green luminescence
SMILES,AC50 [1],AC50 [2]
Cc1cc(NC(=O)CCC(=O)N(Cc2ccco2)C2(C(=O)NC3CCCC3)CCC(C)CC2)no1 (configuration not stated),"35.5 µM [falling, single point]",–
Cc1nnnn1/C(=C\c1ccccc1)C(=O)OCC(=O)NC(C)(C)C,"6.51 µM [falling, full curve]",–
COc1cc(/C=C2\SC(=O)N(CC(=O)Nc3cccc(C)c3)C2=O)cc([N+](=O)[O-])c1O,"3.98 µM [falling, single point]",–
CCN1CCN(Cc2nc3c(c(=O)n(C)c(=O)n3C)n2CCc2ccccc2)CC1,"2.59 µM [rising, partial curve, poor fit]",–
Cc1cc(C)c(CN2CCN(C(=O)Cn3cnc4c(NCc5ccccc5)ncnc43)CC2)c(C)c1,"5.8 µM [falling, partial curve, poor fit]",–
CCN(Cc1ccncc1)C(=O)C1CCN(S(=O)(=O)c2cccs2)CC1,"18.4 µM [rising, single point]",–
CCOc1ccc(NC(=S)N=Nc2c(O)[nH]c3ccccc23)cc1,"3.98 µM [rising, single point]","5.62 µM [falling, single point]"
O=C(CSc1nnnn1C1CCCCC1)Nc1cccc(NC(=O)c2ccco2)c1,"2.31 µM [falling, full curve]",–
CCN1CCN(c2nc(Nc3cc(OC)ccc3OC)nc(Nc3cc(OC)ccc3OC)n2)CC1,"0.447 µM [rising, full curve, poor fit]",–
Cc1nn(-c2ccc(Cl)cc2Cl)c(=O)c2ccccc12,"13 µM [rising, partial curve, poor fit]",–
Cc1[nH]c2ccccc2c1SCC(=O)N1CCOCC1,"8.2 µM [falling, partial curve]",–
CCCc1c(C(=O)Nc2ccc(F)cc2)cnn1-c1ccccc1,"11.2 µM [falling, partial curve]",–
CC(NCC(=O)Nc1ccccc1C(=O)NC1CC1)c1ccc(S(C)(=O)=O)cc1 (configuration not stated),"16.4 µM [rising, single point]",–
Cn1c(=O)c2c(SCC(=O)N3CCOCC3)nc(-c3ccccc3Cl)nc2n(C)c1=O,"14.1 µM [falling, single point]","22.4 µM [rising, single point]"
O=c1oc2ccccc2c(O)c1/C=N/c1ccccn1,"1.58 µM [falling, full curve]",–
COc1cccc(CN2CCNC(=O)C2CC(=O)N(C)CCC2CCOCC2)c1OC (configuration not stated),"0.891 µM [rising, full curve, poor fit]",–
CCOc1ccc(NC(=O)CN(C)C(=O)c2cc(C3CC3)nn2-c2ccccc2)cc1OCC,"18.4 µM [falling, partial curve, poor fit]",–
c1ccc(CCNc2ncnc3nc[nH]c23)cc1,"14.6 µM [falling, partial curve, poor fit]",–
C/C(=N/NC(=O)c1ccccc1O)c1ccc(N2C(=O)C3CCCCC3C2=O)cc1 (configuration not stated),"10 µM [falling, partial curve]",–

# Structures from the list above with sulfur, in the order listed:
SMILES,AC50 [1],AC50 [2]
COc1cc(/C=C2\SC(=O)N(CC(=O)Nc3cccc(C)c3)C2=O)cc([N+](=O)[O-])c1O,"3.98 µM [falling, single point]",–
CCN(Cc1ccncc1)C(=O)C1CCN(S(=O)(=O)c2cccs2)CC1,"18.4 µM [rising, single point]",–
CCOc1ccc(NC(=S)N=Nc2c(O)[nH]c3ccccc23)cc1,"3.98 µM [rising, single point]","5.62 µM [falling, single point]"
O=C(CSc1nnnn1C1CCCCC1)Nc1cccc(NC(=O)c2ccco2)c1,"2.31 µM [falling, full curve]",–
Cc1[nH]c2ccccc2c1SCC(=O)N1CCOCC1,"8.2 µM [falling, partial curve]",–
CC(NCC(=O)Nc1ccccc1C(=O)NC1CC1)c1ccc(S(C)(=O)=O)cc1 (configuration not stated),"16.4 µM [rising, single point]",–
Cn1c(=O)c2c(SCC(=O)N3CCOCC3)nc(-c3ccccc3Cl)nc2n(C)c1=O,"14.1 µM [falling, single point]","22.4 µM [rising, single point]"

# Next entries follow.

SMILES,AC50 [1],AC50 [2]
O=C(Nc1nc(-c2ccccc2)cs1)C1CCCO1 (configuration not stated),"6.51 µM [falling, single point]",–
COC(=O)c1ccccc1NC(=S)NC(NC(=O)c1ccccc1[N+](=O)[O-])C(Cl)(Cl)Cl (configuration not stated),"35.5 µM [falling, single point]",–
COC(=O)c1cc(C(=O)N2CCOCC2)cc([N+](=O)[O-])c1,"3.98 µM [rising, single point]",–
CC(=O)c1c(C)nc(-c2ccc(OCC(=O)Nc3ccccc3)cc2)n1O,"15.8 µM [falling, partial curve, poor fit]","12.6 µM [rising, partial curve, poor fit]"
CCCN1CCc2c(sc3nc(SCC)n(-c4ccc(OC)cc4)c(=O)c23)C1,"10 µM [rising, partial curve, poor fit]",–
CCN(CC)S(=O)(=O)c1ccc2c(c1)N(CC(=O)NCCc1ccc(OC)c(OC)c1)C(=O)CO2,"2.51 µM [rising, partial curve, poor fit]",–
Cc1ccc(NC(=O)NC2CC(=O)N(c3ccc4c(c3)OCCO4)C2)cc1C (configuration not stated),"16.4 µM [falling, single point]",–
COc1ccc(CN(C2CCCCC2C)S(=O)(=O)c2ccc(S(=O)(=O)N(C)C)cc2)cc1OC (configuration not stated),"29.1 µM [rising, single point]",–
CCOC(=O)C1=CN(Cc2cccc(F)c2)S(=O)(=O)N(CC)C1c1ccc(F)c(Cl)c1 (configuration not stated),"9.2 µM [falling, partial curve]",–
CCCC(c1c(C)n(C)n(-c2ccccc2)c1=O)c1c(C)n(C)n(-c2ccccc2)c1=O,"35.5 µM [rising, single point]",–
N#CC(C#N)=Cc1c(N2CCN(c3ccccc3)CC2)nc2ccccn2c1=O,"15.8 µM [rising, single point]",–
CCCCN1C(=O)C(C)=C(C)C1OCCc1ccc(OC)c(OC)c1 (configuration not stated),"35.5 µM [rising, single point]",–
Cn1c(=O)c2c(SCc3cccnc3)nc(C3CC3)nc2n(C)c1=O,"0.206 µM [falling, full curve, poor fit]",–
Cc1cc(C(=O)N/N=C/c2ccc([N+](=O)[O-])s2)n[nH]1,"3.55 µM [rising, single point]",–
O=C(NNC1=C(C(=O)C(F)(F)F)CCC1)c1ccccc1Cl,"5.17 µM [falling, partial curve, poor fit]",–
O=C(Nc1ccccc1F)c1ccc2ncsc2c1,"11.2 µM [falling, partial curve, poor fit]",–
S=C(NCc1ccc2[nH]c3c(c2c1)CCCC3)Nc1ccccc1,"14.6 µM [falling, partial curve]","18.4 µM [falling, partial curve]"
O=C(O)/C=C\c1cn(-c2ccccc2)nc1-c1cc2ccccc2o1,"35.5 µM [falling, single point]",–
CC(=O)c1ccc(OCCCOc2cccc3cccnc23)cc1,"5.01 µM [rising, partial curve]",–
